The list shows a part of the results. Single values of this set are uncertain.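 Many melting curves are irregular; where none melted, Tm was taken as 64 °C.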
Compound: CCc1cnccc1C(=O)Nc1cc2c(cc1F)NC(=O)CC2
Assay: melting temperature shift (DMSO Tm minus MBE1-treated Tm) in cellular thermal proteome profiling; higher = less thermal stabilization by MBE1 (negative = stabilized by MBE1)
Details: A375

Amino acid sequences for entries named in this document (tags omitted). A change or cut given only in a name is not applied to a line headed by its entry.
UniProt Q9NS86: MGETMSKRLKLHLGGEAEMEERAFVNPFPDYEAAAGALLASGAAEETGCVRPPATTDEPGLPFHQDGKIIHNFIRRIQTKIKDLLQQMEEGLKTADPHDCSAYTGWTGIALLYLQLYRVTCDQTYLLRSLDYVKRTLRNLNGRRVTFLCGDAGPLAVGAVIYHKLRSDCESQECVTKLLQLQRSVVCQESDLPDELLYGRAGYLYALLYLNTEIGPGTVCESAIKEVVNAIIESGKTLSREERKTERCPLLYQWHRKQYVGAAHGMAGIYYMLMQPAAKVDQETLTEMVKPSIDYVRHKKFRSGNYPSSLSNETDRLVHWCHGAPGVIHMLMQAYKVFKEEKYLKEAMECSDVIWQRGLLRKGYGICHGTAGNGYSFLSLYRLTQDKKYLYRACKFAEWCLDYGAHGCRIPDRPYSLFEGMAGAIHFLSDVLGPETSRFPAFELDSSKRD
UniProt Q9NPL8: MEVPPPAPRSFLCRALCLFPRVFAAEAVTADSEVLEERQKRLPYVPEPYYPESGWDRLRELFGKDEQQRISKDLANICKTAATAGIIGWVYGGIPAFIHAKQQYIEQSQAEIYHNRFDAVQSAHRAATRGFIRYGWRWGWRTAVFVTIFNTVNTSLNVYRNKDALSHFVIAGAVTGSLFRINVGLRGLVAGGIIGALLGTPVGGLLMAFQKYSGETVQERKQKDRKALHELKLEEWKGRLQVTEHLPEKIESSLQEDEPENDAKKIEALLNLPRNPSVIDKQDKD
UniProt Q9NQ48: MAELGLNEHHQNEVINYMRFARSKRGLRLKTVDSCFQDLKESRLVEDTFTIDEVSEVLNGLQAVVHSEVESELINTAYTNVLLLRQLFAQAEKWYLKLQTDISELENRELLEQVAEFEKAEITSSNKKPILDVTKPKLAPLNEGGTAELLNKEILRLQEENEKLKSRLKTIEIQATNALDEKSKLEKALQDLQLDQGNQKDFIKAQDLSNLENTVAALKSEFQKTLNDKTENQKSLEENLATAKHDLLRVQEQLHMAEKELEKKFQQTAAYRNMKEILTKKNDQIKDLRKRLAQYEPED
UniProt Q9NRG7: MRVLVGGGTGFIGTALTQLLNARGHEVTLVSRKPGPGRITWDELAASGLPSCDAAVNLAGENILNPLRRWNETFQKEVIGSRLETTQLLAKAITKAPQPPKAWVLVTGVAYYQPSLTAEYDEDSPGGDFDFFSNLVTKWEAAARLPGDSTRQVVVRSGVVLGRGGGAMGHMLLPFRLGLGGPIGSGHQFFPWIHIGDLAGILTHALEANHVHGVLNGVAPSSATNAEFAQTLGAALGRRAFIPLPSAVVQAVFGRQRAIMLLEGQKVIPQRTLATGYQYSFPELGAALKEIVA
UniProt Q9H9Y2: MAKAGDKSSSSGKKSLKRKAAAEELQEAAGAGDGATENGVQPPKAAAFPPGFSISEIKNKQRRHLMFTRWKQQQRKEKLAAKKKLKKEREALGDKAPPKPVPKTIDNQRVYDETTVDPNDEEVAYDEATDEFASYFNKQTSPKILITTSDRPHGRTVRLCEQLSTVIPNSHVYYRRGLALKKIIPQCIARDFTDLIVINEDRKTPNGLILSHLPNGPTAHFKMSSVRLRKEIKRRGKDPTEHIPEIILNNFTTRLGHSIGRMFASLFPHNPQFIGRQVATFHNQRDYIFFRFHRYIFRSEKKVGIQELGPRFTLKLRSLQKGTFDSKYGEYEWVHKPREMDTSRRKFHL
UniProt Q9NP64: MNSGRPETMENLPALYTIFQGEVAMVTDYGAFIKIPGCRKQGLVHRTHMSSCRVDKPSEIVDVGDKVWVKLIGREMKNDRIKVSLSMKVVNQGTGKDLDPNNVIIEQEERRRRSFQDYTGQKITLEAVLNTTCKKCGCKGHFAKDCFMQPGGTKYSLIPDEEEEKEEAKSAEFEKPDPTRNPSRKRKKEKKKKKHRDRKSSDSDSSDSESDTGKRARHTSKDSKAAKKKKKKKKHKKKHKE
UniProt Q9H9A6: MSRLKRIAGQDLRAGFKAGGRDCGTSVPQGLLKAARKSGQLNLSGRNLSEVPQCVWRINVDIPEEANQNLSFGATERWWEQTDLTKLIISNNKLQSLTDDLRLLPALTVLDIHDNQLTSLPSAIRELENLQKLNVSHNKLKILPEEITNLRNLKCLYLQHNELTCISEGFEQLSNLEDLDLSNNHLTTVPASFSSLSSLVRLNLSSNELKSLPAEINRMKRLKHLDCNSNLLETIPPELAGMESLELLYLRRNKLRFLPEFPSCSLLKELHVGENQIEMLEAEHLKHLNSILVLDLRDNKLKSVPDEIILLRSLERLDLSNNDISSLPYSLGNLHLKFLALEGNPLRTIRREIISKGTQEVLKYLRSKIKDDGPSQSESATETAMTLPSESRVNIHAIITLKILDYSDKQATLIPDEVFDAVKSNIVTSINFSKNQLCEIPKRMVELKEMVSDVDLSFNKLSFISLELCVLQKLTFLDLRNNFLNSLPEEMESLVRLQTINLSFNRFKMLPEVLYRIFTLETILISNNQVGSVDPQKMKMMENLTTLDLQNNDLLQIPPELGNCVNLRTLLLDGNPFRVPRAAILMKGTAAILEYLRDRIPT
UniProt Q9NR33: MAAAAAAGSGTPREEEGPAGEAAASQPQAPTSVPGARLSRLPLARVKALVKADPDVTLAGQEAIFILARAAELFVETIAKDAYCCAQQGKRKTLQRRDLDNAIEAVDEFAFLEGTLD
UniProt Q9HBG6: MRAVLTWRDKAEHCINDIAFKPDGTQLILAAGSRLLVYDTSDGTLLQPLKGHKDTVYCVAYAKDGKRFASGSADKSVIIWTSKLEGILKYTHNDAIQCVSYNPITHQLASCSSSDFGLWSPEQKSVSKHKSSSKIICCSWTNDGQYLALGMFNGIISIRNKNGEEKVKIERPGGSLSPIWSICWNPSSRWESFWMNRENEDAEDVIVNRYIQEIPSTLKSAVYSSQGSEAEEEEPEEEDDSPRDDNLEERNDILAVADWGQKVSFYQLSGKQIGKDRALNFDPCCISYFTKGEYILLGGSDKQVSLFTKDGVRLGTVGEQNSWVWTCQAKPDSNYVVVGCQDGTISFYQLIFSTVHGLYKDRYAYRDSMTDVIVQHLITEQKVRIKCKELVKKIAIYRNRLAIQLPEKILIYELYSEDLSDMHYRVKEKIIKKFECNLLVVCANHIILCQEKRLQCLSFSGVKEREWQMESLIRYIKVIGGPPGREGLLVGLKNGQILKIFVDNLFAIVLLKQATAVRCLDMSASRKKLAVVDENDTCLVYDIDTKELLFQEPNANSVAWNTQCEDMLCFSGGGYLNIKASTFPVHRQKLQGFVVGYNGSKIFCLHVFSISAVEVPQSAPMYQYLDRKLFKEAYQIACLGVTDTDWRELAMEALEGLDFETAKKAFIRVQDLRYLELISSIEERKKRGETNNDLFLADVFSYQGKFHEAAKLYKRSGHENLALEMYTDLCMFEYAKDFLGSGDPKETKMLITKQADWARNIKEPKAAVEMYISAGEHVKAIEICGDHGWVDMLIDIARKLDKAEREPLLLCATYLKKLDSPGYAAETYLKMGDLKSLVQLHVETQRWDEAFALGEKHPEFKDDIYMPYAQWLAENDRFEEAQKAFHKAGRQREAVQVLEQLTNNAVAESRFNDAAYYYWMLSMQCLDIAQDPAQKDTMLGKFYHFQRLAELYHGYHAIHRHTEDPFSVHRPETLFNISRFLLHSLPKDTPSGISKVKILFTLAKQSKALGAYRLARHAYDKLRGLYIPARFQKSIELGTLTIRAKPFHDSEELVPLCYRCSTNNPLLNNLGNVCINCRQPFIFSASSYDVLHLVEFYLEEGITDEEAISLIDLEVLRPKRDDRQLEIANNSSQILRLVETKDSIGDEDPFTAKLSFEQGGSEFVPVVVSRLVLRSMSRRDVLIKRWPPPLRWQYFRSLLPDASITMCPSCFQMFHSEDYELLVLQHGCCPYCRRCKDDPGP
UniProt Q9NP77: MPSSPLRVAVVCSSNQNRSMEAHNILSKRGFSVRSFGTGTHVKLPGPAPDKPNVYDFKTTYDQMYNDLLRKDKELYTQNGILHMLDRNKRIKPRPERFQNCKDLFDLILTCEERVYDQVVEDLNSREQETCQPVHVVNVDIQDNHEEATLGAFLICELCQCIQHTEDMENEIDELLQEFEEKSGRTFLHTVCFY
UniProt Q9HA47: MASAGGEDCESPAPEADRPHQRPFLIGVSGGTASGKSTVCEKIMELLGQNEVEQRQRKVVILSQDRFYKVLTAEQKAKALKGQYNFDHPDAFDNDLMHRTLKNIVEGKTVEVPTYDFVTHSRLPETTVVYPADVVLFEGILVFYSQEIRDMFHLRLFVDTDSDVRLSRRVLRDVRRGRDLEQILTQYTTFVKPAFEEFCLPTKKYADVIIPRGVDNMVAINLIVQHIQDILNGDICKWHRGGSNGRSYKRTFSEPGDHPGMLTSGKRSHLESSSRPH
UniProt Q9NP66: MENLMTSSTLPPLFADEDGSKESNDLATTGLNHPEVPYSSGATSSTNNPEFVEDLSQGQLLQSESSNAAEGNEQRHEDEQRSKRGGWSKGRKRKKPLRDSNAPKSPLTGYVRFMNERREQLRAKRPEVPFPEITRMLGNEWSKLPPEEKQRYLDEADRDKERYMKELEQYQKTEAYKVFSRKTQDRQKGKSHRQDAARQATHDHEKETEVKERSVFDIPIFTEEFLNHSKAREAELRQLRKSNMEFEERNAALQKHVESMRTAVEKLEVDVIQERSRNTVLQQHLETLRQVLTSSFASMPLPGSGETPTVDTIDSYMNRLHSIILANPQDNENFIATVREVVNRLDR
UniProt Q9NQZ2: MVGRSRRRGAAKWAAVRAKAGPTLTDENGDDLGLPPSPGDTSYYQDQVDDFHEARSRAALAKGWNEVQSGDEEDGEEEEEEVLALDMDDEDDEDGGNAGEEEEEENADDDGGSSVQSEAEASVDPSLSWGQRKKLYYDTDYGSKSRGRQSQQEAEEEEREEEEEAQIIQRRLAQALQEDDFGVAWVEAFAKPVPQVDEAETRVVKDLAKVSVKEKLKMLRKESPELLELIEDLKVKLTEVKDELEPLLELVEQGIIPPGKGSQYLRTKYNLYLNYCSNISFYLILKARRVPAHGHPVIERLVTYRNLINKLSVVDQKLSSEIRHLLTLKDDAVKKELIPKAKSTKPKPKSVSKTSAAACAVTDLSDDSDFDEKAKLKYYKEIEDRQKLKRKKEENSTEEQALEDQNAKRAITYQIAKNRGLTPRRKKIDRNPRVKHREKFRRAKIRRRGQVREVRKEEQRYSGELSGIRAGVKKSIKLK
UniProt Q9HC77: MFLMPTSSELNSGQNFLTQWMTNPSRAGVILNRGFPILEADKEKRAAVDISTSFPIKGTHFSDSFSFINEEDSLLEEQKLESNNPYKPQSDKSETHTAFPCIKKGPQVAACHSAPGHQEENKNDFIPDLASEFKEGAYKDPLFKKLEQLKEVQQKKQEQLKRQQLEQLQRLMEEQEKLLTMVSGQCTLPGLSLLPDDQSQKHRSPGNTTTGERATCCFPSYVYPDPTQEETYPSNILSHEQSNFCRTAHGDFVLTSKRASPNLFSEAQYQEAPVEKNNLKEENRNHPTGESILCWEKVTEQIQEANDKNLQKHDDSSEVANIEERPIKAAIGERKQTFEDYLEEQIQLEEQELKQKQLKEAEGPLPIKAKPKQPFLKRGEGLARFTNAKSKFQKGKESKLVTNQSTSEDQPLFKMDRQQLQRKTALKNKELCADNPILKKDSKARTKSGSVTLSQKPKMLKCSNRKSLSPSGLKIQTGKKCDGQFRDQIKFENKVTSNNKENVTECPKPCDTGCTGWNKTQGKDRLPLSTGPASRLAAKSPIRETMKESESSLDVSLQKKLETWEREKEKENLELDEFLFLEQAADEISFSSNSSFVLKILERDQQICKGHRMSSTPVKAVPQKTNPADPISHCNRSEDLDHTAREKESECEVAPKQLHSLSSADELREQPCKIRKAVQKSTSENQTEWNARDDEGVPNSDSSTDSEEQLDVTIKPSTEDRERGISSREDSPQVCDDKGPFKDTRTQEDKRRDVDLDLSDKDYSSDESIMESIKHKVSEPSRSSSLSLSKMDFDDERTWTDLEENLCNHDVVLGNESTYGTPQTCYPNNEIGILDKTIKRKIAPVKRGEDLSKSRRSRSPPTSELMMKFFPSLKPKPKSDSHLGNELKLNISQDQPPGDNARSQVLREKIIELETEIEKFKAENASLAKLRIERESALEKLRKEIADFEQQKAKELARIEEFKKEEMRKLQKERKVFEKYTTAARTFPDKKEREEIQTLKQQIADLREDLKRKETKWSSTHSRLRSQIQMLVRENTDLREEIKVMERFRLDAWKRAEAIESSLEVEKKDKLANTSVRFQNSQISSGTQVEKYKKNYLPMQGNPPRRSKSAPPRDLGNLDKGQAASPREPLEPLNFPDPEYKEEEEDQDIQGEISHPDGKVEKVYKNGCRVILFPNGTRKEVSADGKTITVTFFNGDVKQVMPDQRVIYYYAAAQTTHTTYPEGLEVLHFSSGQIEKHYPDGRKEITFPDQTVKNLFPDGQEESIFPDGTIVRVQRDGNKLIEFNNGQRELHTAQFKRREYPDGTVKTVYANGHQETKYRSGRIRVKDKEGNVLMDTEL

Target	melting temperature shift (MBE1 concentration: 100 nM)	melting temperature shift (MBE1 concentration: 1 uM)
TXNRD2 (UniProt Q9NNW7)	-2.32 °C	-0.972 °C
LANCL2 (UniProt Q9NS86)	-1.84 °C	-0.065 °C
OLA1 (UniProt Q9NTK5)	-0.11 °C	0.153 °C
EXOSC3 (UniProt Q9NQT5)	0.0488 °C	0.202 °C
TIMMDC1 (UniProt Q9NPL8)	-3.15 °C	-1.75 °C
MBNL1 (UniProt Q9NR56)	-0.402 °C	0.83 °C
MRS2 (UniProt Q9HD23)	1.23 °C	-0.617 °C
DDX21 (UniProt Q9NR30)	-0.668 °C	-0.372 °C
UniProt Q9NRF2	-2.23 °C	-0.109 °C
GPAM (UniProt Q9HCL2)	0.57 °C	0.633 °C
ANLN (UniProt Q9NQW6)	-0.551 °C	0.0513 °C
GOPC (UniProt Q9HD26)	-0.463 °C	-0.82 °C
GPCPD1 (UniProt Q9NPB8)	0.118 °C	-0.0518 °C
ETNK1 (UniProt Q9HBU6)	-0.429 °C	-0.0671 °C
ABCB8 (UniProt Q9NUT2)	-0.581 °C	0.171 °C
UniProt Q9NU19	-1.17 °C	-1.26 °C
LZTFL1 (UniProt Q9NQ48)	-0.825 °C	-0.557 °C
UniProt Q9HBM6	0.499 °C	-0.0423 °C
TYW1 (UniProt Q9NV66)	0.0672 °C	-0.922 °C
UniProt Q9NQV6	0.0753 °C	-0.441 °C
FAM114A2 (UniProt Q9NRY5)	-0.0305 °C	0.58 °C
UniProt Q9HD40	-0.861 °C	2.35 °C
SERINC1 (UniProt Q9NRX5)	-1.4 °C	-2.26 °C

Target	melting temperature shift (MBE1 concentration: 100 nM)	melting temperature shift (MBE1 concentration: 1 uM)
UniProt Q9HBE1	-0.237 °C	-0.762 °C
SDR39U1 (UniProt Q9NRG7)	0.971 °C	0.568 °C
UniProt Q9H9Y2	0.0977 °C	0.641 °C
QTRTD1 (UniProt Q9H974)	-0.055 °C	0.0611 °C
UniProt Q9NP64	-0.352 °C	-0.224 °C
BLOC1S4 (UniProt Q9NUP1)	0.429 °C	0.773 °C
LRRC40 (UniProt Q9H9A6)	-0.955 °C	-0.386 °C
POLE4 (UniProt Q9NR33)	0.812 °C	0.434 °C
IFT122 (UniProt Q9HBG6)	-1.32 °C	-0.763 °C
EXOC1 (UniProt Q9NV70)	-0.696 °C	-0.231 °C
DROSHA (UniProt Q9NRR4)	-1.53 °C	-1.53 °C
SSU72 (UniProt Q9NP77)	-0.737 °C	-0.644 °C
APMAP (UniProt Q9HDC9)	-0.579 °C	-1.77 °C
UCK1 (UniProt Q9HA47)	-1.61 °C	-1.56 °C
UniProt Q9NUB1	0.543 °C	0.275 °C
HMG20A (UniProt Q9NP66)	-0.14 °C	0.446 °C
PPAN (UniProt Q9NQ55)	-0.305 °C	-0.128 °C
UTP3 (UniProt Q9NQZ2)	0.782 °C	0.311 °C
ARMT1 (UniProt Q9H993)	0.39 °C	0.499 °C
CUTC (UniProt Q9NTM9)	-0.167 °C	0.556 °C
VTA1 (UniProt Q9NP79)	0.189 °C	-0.311 °C
FARSB (UniProt Q9NSD9)	0.293 °C	0.0855 °C
UniProt Q9HC77	-2.25 °C	-0.821 °C

Reformatted: results already given
Target | melting temperature shift (MBE1 concentration: 100 nM) | melting temperature shift (MBE1 concentration: 1 uM)
UniProt Q9NP64 | -0.352 °C | -0.224 °C
EXOC1 (UniProt Q9NV70) | -0.696 °C | -0.231 °C
UCK1 (UniProt Q9HA47) | -1.61 °C | -1.56 °C

Reference: the supplement of paper PMC12595434, “Development of retinoid nuclear receptor pathway antagonists through targeting aldehyde dehydrogenase 1A3” (iScience, 2025)
